# Several values for one entry are separate records, joined by “and”; a condition that tells them apart may be missing. Equal values may be shown once. The campaign covered roughly 340,000 compounds. About 170 (0.05%) were called active. The inconclusive results got no clear call from the source; some entries with a clear call stand among them for comparison. The call rests on the fitted dose curve; in most records, active means well fitted inhibition curve with a large enough effect in the signal ratio, with a control signal flat (not every such curve was filed as active); inconclusive means small, poorly fitted or top-dose-only effect, or effect the other way, or a change in a side signal; inactive means flat fitted curve, though single readings scatter; the % refers to the signal ratio. A potency beside an inconclusive call is a rough fit, not a confirmed value.
# Assay: qHTS Assay to Find Inhibitors of Chronic Active B-Cell Receptor Signaling;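 on activity change, negative = inhibition: plate controls were basal doxycycline-induced cells for no effect and cells given 10 µM MG132 for full effect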
# Conditions: ABC-DLBCL IkBa-CBG/CBR reporter, luminescence ratio (green luciferase fused to IkBa over red control in TMD8 lymphoma cells), 4 h; activity change, negative = inhibition: at 46.1 µM (top of the series)
# How it was run: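 Concentration-response series (up to 46 uM) were applied to TMD8 dual-reporter cells for 4 h at 37C with doxycycline. Green/red ratio, after filter-overlap correction, defined %Activity; red signal alone was normalised to basal cells and zero luminescence.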
# Potency means the concentration at half of the fitted maximal effect.
SMILES,Potency,"activity change, negative = inhibition"
O=C(N/N=C/c1ccc([N+](=O)[O-])o1)c1ccc2c(c1)OCO2,"inconclusive: 10 µM [falling, partial curve]",–
S=c1nc[nH]c2nc[nH]c12,–,inconclusive: -23.3% and inconclusive: -0.0104%
Cc1nc(N2CCCCC2)c2c(C)c(C(=O)Nc3ccccc3C(F)(F)F)sc2n1,–,inconclusive: 12.2%
CN1CCSc2ccc(C(=O)Nc3cccc(F)c3)cc21,"inconclusive: 25.1 µM [falling, single point]",–
O=C1OCCC1Sc1nnc(-c2ccccc2)o1 (stereo not drawn),–,inconclusive: -19.4%
Cc1ccc(-c2nnc(SCc3nc4ccccc4[nH]3)n2Cc2ccco2)cc1,–,inconclusive: 9.15%
COc1cc(C(=O)N/N=C(\C)Cn2nc([N+](=O)[O-])cc2C)ccc1O,"inconclusive: 23.1 µM [falling, single point]",–
Cc1ccc(C(=O)COC(=O)c2ccccc2NC(=O)c2ccccc2)cc1[N+](=O)[O-],"inconclusive: 18.4 µM [falling, partial curve]",–
CC1=NN(C(N)=S)C(=O)C1N=Nc1ccc(Cl)cc1Cl (stereo not drawn),–,inconclusive: 9.16%
O=C(Nc1ccc2c(c1)OCCO2)c1ccc(S(=O)(=O)N2CCCCC2)cc1,–,inconclusive: 5.16%
Cc1ccc(C2=N/C(=C/c3cccs3)C(=O)N2Nc2ccccc2)cc1,"inconclusive: 5.8 µM [falling, full curve]",–
CC/C(O)=C1\C(=O)CC(C)(C)CC1=Nc1ccccc1C,–,inconclusive: -13.2%
Cc1cccc(/C=N/NC(=O)c2cc(Br)ccc2OCc2ccccc2)n1,–,inconclusive: -15.8%
COc1cccc2sc(N3CCN(C(=O)c4ccco4)CC3)nc12,"inconclusive: 29.1 µM [falling, single point]",–
CCOC(=O)N/N=C\c1ccc(-c2cc(Cl)ccc2Cl)o1,"inconclusive: 11.2 µM [falling, partial curve, poor fit]",–
COC(=O)c1sc(NC(=O)CC(C)C)c(C(=O)OC)c1C,–,inconclusive: -1.38%
COc1ccccc1NC(=O)N1CCc2[nH]c3ccc(Cl)cc3c2C1,"inconclusive: 1.12 µM [falling, full curve]",–
CC(C)(C)CC(C)(C)NCC(O)COCCOc1ccc(Br)cc1 (stereo not drawn),–,inconclusive: -7.87%
NS(=O)(=O)c1ccc(CCNC(=O)NC2CCCCC2)cc1,–,inconclusive: 6.95%
COC(=O)c1sc2nc(C)nc(SCC(=O)Nc3sccc3C(N)=O)c2c1C,–,inconclusive: 2.5%
O=S(=O)(c1ccc(-c2cn3ccccc3n2)cc1)N1CCOCC1,–,inconclusive: 13.5%
CCc1nc(Nc2ccc3nccnc3c2)c2oc3ccccc3c2n1,–,inconclusive: 0.395%
CC(C)OCCCNC(=O)CN1C(=O)/C(=C/c2ccccc2F)Oc2ccccc21,–,inconclusive: 3.69%
Cc1nc2ccccc2n1CCOc1ccc([N+](=O)[O-])cc1,–,inactive: -3.77%
COc1ccc(C2CC(=O)Nc3cc(OC)c(OC)cc32)cc1Br (stereo not drawn),"inconclusive: 12.6 µM [falling, single point]",–
CCCC(=O)Nc1nc2ccc(S(N)(=O)=O)cc2s1,–,inconclusive: 2.1%

SMILES,Potency,"activity change, negative = inhibition"
CCOC(=O)c1ccc(NC(=O)C2CCN(S(=O)(=O)CC)CC2)cc1,–,inconclusive: 4.65%
COc1ccc2o/c(=N/NC(=O)c3cccs3)c(C(N)=O)cc2c1,–,inconclusive: -10.7%
CC(=O)Nc1ccc(-c2csc(NC(=O)C3CC(=O)N(c4ccc5c(c4)OCCO5)C3)n2)cc1 (stereo not drawn),–,inactive: 0.245%
CC(C)CN(C(=O)CSc1nc(-c2ccccc2)cn1N)c1c(N)n(Cc2ccccc2)c(=O)[nH]c1=O,"inconclusive: 20.6 µM [falling, partial curve]",–
Cc1ccc(NC(=O)CSc2nc(=O)n(CCCN(C)C)c3c2CCC3)cc1F,–,inconclusive: -0.768%
COCCn1c(=O)[nH]c2cc(C(=O)NCCCN3CCN(c4ccc(F)cc4)CC3)ccc2c1=O,"inconclusive: 3.16 µM [rising, partial curve, poor fit]",–
CNC(=S)N/N=C/c1ccc(OCC(=O)Nc2c(C)cc(C)cc2C)c(OC)c1,"inconclusive: 16.4 µM [falling, single point]",–
COC(=O)Cc1ccc(OC(=O)CCS(=O)(=O)c2ccc(Cl)cc2)cc1,"inconclusive: 29.1 µM [falling, single point]",–
COC(=O)c1ccc(OCC(O)CN2C(=O)c3ccccc3S2(=O)=O)cc1 (stereo not drawn),–,inconclusive: 2.18%
CC(=O)c1ccccc1NC(=O)COC(=O)/C(=C/c1ccccc1)n1nnnc1C,"inconclusive: 14.1 µM [falling, single point]",–
COc1cccc(-c2nn(-c3ccc(F)cc3)cc2C(=O)NCC2CCCO2)c1 (stereo not drawn),–,inconclusive: 5.82%
COc1ccc(C(=O)NC(=S)Nc2cccc3nc(C)ccc23)cc1OC,–,inactive: 0.713%
COc1ccc(/C=N\NC(=O)c2cc(O)c(O)c(O)c2)cc1CN1CCN(c2ccc(F)cc2)CC1,"inconclusive: 29.1 µM [falling, single point]",–
CC(c1ccc(Cl)cc1)n1c(-c2ccc3ccccc3n2)n[nH]c1=S (stereo not drawn),–,inconclusive: 8.78%
CS(=O)(=O)Nc1ccc2c(c1)OCC(=O)N2Cc1ccccc1,–,inactive: 0.267%
Cc1noc(/C=C/N(C)C)c1S(=O)(=O)N1CCCC(C(=O)Nc2ccc3c(c2)OCO3)C1 (stereo not drawn),–,inconclusive: 13.1%
COc1ccc(C(=O)NNC(=O)Cc2ccc(Cl)cc2)cc1,–,inactive: -13.4%
Cc1ccc(S(=O)(=O)Nc2ccc(N=Nc3ccc(O)cc3)cc2)cc1,–,inconclusive: 2.29%
CC(C)CNC(=O)c1cc(-c2ccco2)on1,"inconclusive: 35.5 µM [rising, single point]",–
Cc1ccc(C(=O)NNc2cc(N3CCCC3)nc(N3CCCC3)n2)cc1,–,inactive: 8.25%
COc1ccc2cc(C3=CCCCC3)ncc2c1,"inconclusive: 20.6 µM [falling, single point]",–
CC(C)c1ccc(OCC(O)CNC(C)c2ccccc2)cc1 (stereo not drawn),–,inconclusive: -28.8%
C[C@H](CO)N1C[C@H](C)[C@@H](CN(C)C(=O)Nc2ccc3c(c2)OCO3)Oc2c(NS(=O)(=O)c3cn(C)cn3)cccc2C1=O,–,inconclusive: 0.828%
Cc1c(C)n(C)c2ccc(C(=O)N3CCN(c4ccccc4)CC3)cc12,–,inactive: 1.13%
Cc1cc(C)c2sc(NNC(=O)c3ccc(S(=O)(=O)N4CCc5ccccc5C4)cc3)nc2c1,–,inconclusive: -0.0318%
O=C(Cc1c(O)c2ccccc2oc1=O)c1ccc(F)cc1,–,inconclusive: -4.38%

# Given with bars between the fields: part of the list above.
SMILES | Potency | activity change, negative = inhibition
COc1cccc2sc(N3CCN(C(=O)c4ccco4)CC3)nc12 | inconclusive: 29.1 µM [falling, single point] | –
COC(=O)c1sc(NC(=O)CC(C)C)c(C(=O)OC)c1C | – | inconclusive: -1.38%
CC(C)(C)CC(C)(C)NCC(O)COCCOc1ccc(Br)cc1 (stereo not drawn) | – | inconclusive: -7.87%
COC(=O)c1sc2nc(C)nc(SCC(=O)Nc3sccc3C(N)=O)c2c1C | – | inconclusive: 2.5%
CCc1nc(Nc2ccc3nccnc3c2)c2oc3ccccc3c2n1 | – | inconclusive: 0.395%
Cc1nc2ccccc2n1CCOc1ccc([N+](=O)[O-])cc1 | – | inactive: -3.77%
COc1ccc(C2CC(=O)Nc3cc(OC)c(OC)cc32)cc1Br (stereo not drawn) | inconclusive: 12.6 µM [falling, single point] | –
CCCC(=O)Nc1nc2ccc(S(N)(=O)=O)cc2s1 | – | inconclusive: 2.1%
CC(=O)Nc1ccc(-c2csc(NC(=O)C3CC(=O)N(c4ccc5c(c4)OCCO5)C3)n2)cc1 (stereo not drawn) | – | inactive: 0.245%
CNC(=S)N/N=C/c1ccc(OCC(=O)Nc2c(C)cc(C)cc2C)c(OC)c1 | inconclusive: 16.4 µM [falling, single point] | –
COC(=O)Cc1ccc(OC(=O)CCS(=O)(=O)c2ccc(Cl)cc2)cc1 | inconclusive: 29.1 µM [falling, single point] | –
COC(=O)c1ccc(OCC(O)CN2C(=O)c3ccccc3S2(=O)=O)cc1 (stereo not drawn) | – | inconclusive: 2.18%
COc1cccc(-c2nn(-c3ccc(F)cc3)cc2C(=O)NCC2CCCO2)c1 (stereo not drawn) | – | inconclusive: 5.82%
COc1ccc(C(=O)NC(=S)Nc2cccc3nc(C)ccc23)cc1OC | – | inactive: 0.713%
CS(=O)(=O)Nc1ccc2c(c1)OCC(=O)N2Cc1ccccc1 | – | inactive: 0.267%
COc1ccc(C(=O)NNC(=O)Cc2ccc(Cl)cc2)cc1 | – | inactive: -13.4%
O=C(Cc1c(O)c2ccccc2oc1=O)c1ccc(F)cc1 | – | inconclusive: -4.38%

# Further results:

SMILES,Potency,"activity change, negative = inhibition"
COc1ccc(-c2ccc(CCC(=O)O)n2-c2ccccc2OC)cc1,"inconclusive: 11.2 µM [falling, partial curve]",–
O=C(NNC1OC(CO)C(O)C(O)C1O)c1cccc(Br)c1 (stereo not drawn),"inconclusive: 17.8 µM [falling, partial curve]",–
CCSc1nnc(NC(=O)CSc2nc3c(c(=O)n2-c2ccccc2OC)SCC3)s1,–,inconclusive: -23.2%
CCOc1ccc(-c2[nH]ncc2Oc2cccc(OC)c2)c(O)c1,–,inconclusive: -0.367%
COC(=O)C(NC(C)=O)(Nc1sc2c(c1C(N)=O)CCCC2)C(F)(F)F (stereo not drawn),–,inconclusive: 14%
Brc1cccc(-c2nc3cccnc3nc2-c2cccc(Br)c2)c1,–,inactive: 7.56%
CC(C)N1CCc2c(sc(NC(=O)c3cc(-c4cccs4)nc4ccccc34)c2C(N)=O)C1,–,inconclusive: -7.01%
O=C(COC(=O)Cn1cnc2ccccc21)Nc1ccc2c(c1)C(=O)c1ccccc1C2=O,–,inconclusive: 10.8%
COc1cc(C(=O)NCC2CCCO2)cc(OC)c1OC (stereo not drawn),–,inconclusive: 6.48%
COc1cc2c(cc1OC)C1C/C(=N\O)C(CC(C)C)CN1CC2 (stereo not drawn),–,inactive: 10.3%
CC1CCC(NC(=O)CCN2C(=O)C3C4C=CC(C4)C3C2=O)CC1 (stereo not drawn),–,inactive: -0.411%
CC1CCc2c(sc3nc(C(C)(C)C)nc(N4CCN(C(=O)CCl)CC4)c23)C1 (stereo not drawn),–,inconclusive: -7.97%
Cc1ccc2[nH]c(CCN(C)C)c(CN3CCOCC3)c2c1,–,inactive: 4.21%
COc1ccc2sc(N(CCCN(C)C)C(=O)c3ccc(S(=O)(=O)N(C)C4CCCCC4)cc3)nc2c1,–,inconclusive: -7.33%
COC(=O)COc1ccc(S(=O)(=O)Nc2ccc(C(N)=O)cc2)cc1Cl,–,inconclusive: 10.9%
CCOc1ccc(-n2c(=S)sc3c(=O)n(-c4ccccc4)c(SCC(=O)O)nc32)cc1,–,inconclusive: -0.756%
COCCN=C1Sc2nc3ccc(C)cc3cc2CN1Cc1cccs1,–,inactive: 3.63%
O=S1(=O)C=C(SCc2ccc(F)cc2)Nc2ccccc21,–,inactive: 0.463%
CCC(C)NC(=O)C(=O)Nc1c2c(nn1-c1ccccc1)CS(=O)(=O)C2 (stereo not drawn),"inconclusive: 6.31 µM [falling, single point]",–
O=C(/C=C/c1ccc(S(=O)(=O)N2CCOCC2)cc1)Nc1ccc(F)c(F)c1F,–,inconclusive: 0.0647%
Cc1cccc(N=Cc2[nH]c3ccc(Br)c(Cl)c3c2O)c1,–,inconclusive: -10.5%
COC(=O)C1=C(C)N(Cc2ccccc2)C(=NCCCOC(C)C)N[C@H]1c1ccccc1,–,inconclusive: -0.0626%
Cc1ccc2nc(NC(=O)CSCC(=O)OCC(=O)c3ccccc3)sc2c1,"inconclusive: 0.731 µM [falling, full curve, poor fit]",–
NC(=O)c1ccccc1N=Cc1ccc2ccccc2c1,–,inconclusive: 0.106%
c1ccc(CCCc2nc(-c3ccccn3)no2)cc1,–,inconclusive: -26.6%
COc1cc(C=NNC(=O)c2ccccc2NS(=O)(=O)c2cccs2)cc(OC)c1O,"inconclusive: 25.9 µM [falling, partial curve, poor fit]",–
